The subject of the test is Lymphosarcoma Mecca ip in C3AKF1 mice, survival T/C%. The experiment in a line: NCI In Vivo Anticancer Drug Screen. Data for tumor model Lymphosarcoma Mecca (intraperitoneal) in C3AKF1 (CHKRF1) mice. To be noted: T/C endpoint: survival time, mean or median, higher T/C = longer survival. As for the experimental part: The antitumor activity of compounds was measured in mice bearing transplantable tumors. Survival or tumor size were measured and the results are expressed as the measurement made in the treated group (T) divided by the measurement made in the vehicle treated control group (C). The tumor model used in this assay is Lymphosarcoma Mecca (intraperitoneal) in C3AKF1 (CHKRF1) mice

Setting [1] is: dose: 2.0 mg/kg/injection, schedule: Q01DX010 (ip), vehicle: saline.
[2] abbreviates: dose: 4.0 mg/kg/injection, schedule: Q01DX010 (ip), vehicle: saline.
[3] abbreviates: dose: 50.0 mg/kg/injection, schedule: Q01DX010 (ip), vehicle: saline.
[4] abbreviates: dose: 100.0 mg/kg/injection, schedule: Q01DX010 (ip), vehicle: saline.
The mark [5] stands for this setting: dose: 200.0 mg/kg/injection, schedule: Q01DX010 (ip), vehicle: saline.
Setting [6] is: dose: 6.25 mg/kg/injection, schedule: Q01DX010 (ip), vehicle: saline.
[7] abbreviates: dose: 25.0 mg/kg/injection, schedule: Q01DX010 (ip), vehicle: saline.
[8] abbreviates: dose: 10.0 mg/kg/injection, schedule: Q01DX010 (ip), vehicle: saline.
[9] abbreviates: dose: 2.5 mg/kg/injection, schedule: Q01DX010 (ip), vehicle: saline.
Setting [10] is: dose: 5.0 mg/kg/injection, schedule: Q01DX010 (ip), vehicle: saline.
[11] abbreviates: dose: 0.4 mg/kg/injection, schedule: Q01DX010 (ip), vehicle: other.

The structures appear in SMILES notation. The list does not hold the whole screen: it gathers tests that were run many times, whatever their T/C, doses with no T/C, and many T/C values between a quarter and a half above the control. Other doses and runs of a compound stand elsewhere. T/C gives the treated animals as a percentage of the vehicle group. Some doses have a count of surviving animals in place of a T/C: the source files T/C as zero there, which appears to mark a toxic dose or a test without result, not a measured value. Some doses without a T/C left all or most animals alive at the check, yet need not have been tolerated: the source hardly ever lists a survival T/C far under the control, and the zero likely stands for such cases as well. Survivors were counted at the toxicity check, usually on the fifth day, unless a day is given; later deaths do not show. Schedule codes are those of the source, taken here to give the interval after Q, in days (D) or hours (H), and the number of doses after X. Some entries hold several experiments; the values are given in rising order. For survival time, this PubChem deposit counts one and a half times the control or more as active, and values a quarter to a half above the control carry no call in these data; other NCI protocols may use other cut-offs. Marks such as (2×) say how often a value occurs here. Starred links: 1 amine or outer side, 2 acyl side, 3 side chain; linkers in the order of their positions; H or OH if unused. Positions of bridges follow the written chain, without caps; N, C: chain ends. Non-standard residues stand in square brackets, D forms with d. Residues, ends and D or L forms follow the SMILES beside them. Chains are numbered I, II in the order given. Actinocin(9to1) = Cc1c2oc3c(C)ccc(C(=O)[*:1])c3nc-2c(C(=O)[*:2])c(N)c1=O; aThr = C[C@H](O)[C@H](N)C(=O)O; NMeV = CN[C@H](C(=O)O)C(C)C; Sar = CNCC(=O)O

Turning to `S=P(N1CC1)(N1CC1)N1CC1`, the survivor count reads like this: (dose: 1.0 mg/kg/injection, schedule: Q01DX010 (ip), vehicle: saline) 6 of 6; under setting [1], 6 of 6; (dose: 8.0 mg/kg/injection, schedule: Q01DX010 (ip), vehicle: saline) 6 of 6. Also, the T/C under setting [2] is 136 % of control.

Turning to `Nc1nc(=S)c2ncn(C3OC(CO)C(O)C3O)c2[nH]1` (centres undefined), the T/C under setting [1] is 135 % of control.

For `CN(C)/N=N/c1nc[nH]c1C(N)=O`, the T/C under setting [3] is 133 % of control, the T/C under setting [4] is 133 % of control and the T/C under setting [5] is 144 % of control.

As for `N=[N+]=CC(=O)OCC(N)C(=O)O` (centres undefined), the T/C runs as follows: under setting [6], 130 % of control; (dose: 12.51 mg/kg/injection, schedule: Q01DX010 (ip), vehicle: saline) 130 % of control. Further, under setting [7], the survivor count is 6 of 6.

For the compound `CCOC(=O)NP(=O)(N1CC1)N1CC1`, the T/C under setting [8] was 144 % of control.

Consider `CCN(CC)CCNc1ccc(C)c2sc3ccccc3c(=O)c12`, for which, under setting [3], the T/C is 127 % of control. For the same compound, the survivor count under setting [4] is on record as 6 of 6; the survivor count under setting [5] was 5 of 6 and 6 of 6.

`Cc1c2oc3c(C)ccc(C(=O)N[C@@H]4C(=O)N[C@H](C(C)C)C(=O)N5CCC[C@H]5C(=O)N(C)CC(=O)N(C)[C@@H](C(C)C)C(=O)O[C@H]4C)c3nc-2c(C(=O)N[C@@H]2C(=O)N[C@H](C(C)C)C(=O)N3CCC[C@H]3C(=O)N(C)CC(=O)N(C)[C@@H](C(C)C)C(=O)O[C@H]2C)c(N)c1=O` (I: [aThr][dV]P[Sar][NMeV] / II: [aThr][dV]P[Sar][NMeV]; ester I:1-I:C, II:1-II:C; linker I:N-II:N via Actinocin(9to1)): the survivor count by setting is: (dose: 13.0 micrograms/kg/injection, schedule: Q01DX010 (ip), vehicle: acid diluted with saline) 6 of 6; (dose: 25.0 micrograms/kg/injection, schedule: Q01DX010 (ip), vehicle: acid diluted with saline) 6 of 6; (dose: 100.0 micrograms/kg/injection, schedule: Q01DX010 (ip), vehicle: acid diluted with saline) 6 of 6. In addition, the T/C (dose: 50.0 micrograms/kg/injection, schedule: Q01DX010 (ip), vehicle: acid diluted with saline) is 145 % of control.

For `NC(=O)N(CCCl)N=O`, the survivor count (dose: 0.5 mg/kg/injection, schedule: Q01DX010 (ip), vehicle: saline) was 0 of 6 and the survivor count under setting [2] is reported as 6 of 6.

`C[C@]12C=CC(=O)C=C1CC[C@@H]1[C@@H]2[C@@H](O)C[C@@]2(C)[C@H]1CC[C@]2(O)C(=O)CO`: the T/C by setting is: (dose: 12.5 mg/kg/injection, schedule: Q01DX010 (sc), vehicle: steroid suspending solution) 135 % of control; (dose: 25.0 mg/kg/injection, schedule: Q01DX010 (sc), vehicle: steroid suspending solution) 125 % of control. Besides, the survivor count is, setting by setting: (dose: 50.0 mg/kg/injection, schedule: Q01DX010 (sc), vehicle: steroid suspending solution) 6 of 6; (dose: 100.0 mg/kg/injection, schedule: Q01DX010 (sc), vehicle: steroid suspending solution) 6 of 6.

Consider `Nc1nc(=S)c2[nH]cnc2[nH]1`, for which the T/C is, setting by setting: (dose: 1.25 mg/kg/injection, schedule: Q01DX010 (ip), vehicle: saline) 113, 116, 163, 183 % of control; under setting [9], 86, 118, 127 % of control; under setting [10], 109 and 118 % of control; under setting [8], 86 (2×) and 100 % of control. In addition, the survivor count is, setting by setting: under setting [9], 6 of 6; under setting [10], 6 of 6; under setting [8], 6 of 6.

On to `Nc1nc(N)c2nc(CNc3ccc(C(=O)NC(CCC(=O)O)C(=O)O)cc3)cnc2n1` (centres undefined), for which, under setting [11], the T/C is 130 % of control and the survivor count is reported as 6 of 6.

In the case of `O[C@H](CN1CC1)[C@@H](O)CN1CC1`, the T/C (dose: 500.0 micrograms/kg/injection, schedule: Q01DX010 (ip), vehicle: saline) is 125 % of control.

With `CCOC(N)=O`, where the note is “dose: 1000.0 mg/kg/injection, schedule: Q01DX010 (ip), vehicle: saline”, the survivor count is 4 of 6 and 6 of 6.

For `COC1C(OC(=O)/C=C/C=C/C=C/C=C/C(=O)O)CCC2(CO2)C1C1(C)OC1CC=C(C)C` (centres undefined), for the setting “dose: 400.0 mg/kg/injection, schedule: Q01DX010 (ip), vehicle: saline”, the survivor count is on record as 0 of 6.

For `O=[n+]1c2c(n([O-])c3ccccc31)-c1cccc3cccc-2c13`, the survivor count under setting [6] is given as 5 of 6; the survivor count under setting [7] is reported as 5 of 6; the survivor count under setting [3] is 6 of 6; the survivor count under setting [4] is reported as 6 of 6; the survivor count under setting [5] is on record as 6 of 6.

Regarding `CS(=O)(=O)OCCCCOS(C)(=O)=O`, the survivor count by setting is: (dose: 12.5 mg/kg/injection, schedule: Q01DX010 (ip), vehicle: saline) 6 of 6; under setting [7], 6 of 6.

Values taken from PubChem BioAssay AID304 (DTP/NCI, 2004).
